Data: PubChem BioAssay AID493014 (National Center for Advancing Translational Sciences (NCATS), 2011)
The other results are listed elsewhere or left out. Further columns of the screen follow, without active or inactive calls. The list favours compounds with an active or inconclusive main result. Potencies come from curve fits of mixed quality, noted in brackets.

Assay: qHTS Assay to Find Inhibitors of Chronic Active B-Cell Receptor Signaling
Details: ABC-DLBCL IkBa-CBG/CBR reporter, luminescence ratio (green luciferase fused to IkBa over red control in TMD8 lymphoma cells), 4 h
Method in brief: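 Cell line TMD8 (human ABC DLBCL), stably expressing tet-inducible CBG68-IkBa fusion and CBR; IMDM/0.5% FBS; cpd up to 46 uM; dox induction, 4 h, 37C/5% CO2; dual luminescence; green/red ratio; MG132 control.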

[1] = measured here: CBR red luminescence, cell number
[2] = measured here: IkBa-CBG green luminescence

| SMILES | AC50 [1] | AC50 [2] |
| --- | --- | --- |
| COC(=O)COC(=O)c1ccc(-n2nnnc2SC)cc1 | 32.6 µM [falling, single point] |  |
| Cc1ccc(S(=O)(=O)N/N=C\c2ccc([N+](=O)[O-])o2)cc1 | 20.6 µM [rising, single point] |  |
| Cc1nc2ccc(C(=O)O)cc2[nH]1 | 18.4 µM [falling, single point] |  |
| COc1cc(C(=O)N/N=C/c2cn(Cc3cccc(F)c3)c3ccccc23)ccc1O | 11.2 µM [falling, partial curve] |  |
| O=S(=O)(Cc1cc(Cl)nc(-c2ccncc2)n1)c1ccccc1 | 0.631 µM [falling, full curve, poor fit] |  |
| Cc1ncc(CN2CCCC(C(=O)Nc3ccc(-c4cscn4)cc3)C2)cn1 (stereo unspecified) | 7.08 µM [falling, partial curve] |  |
| CCCn1c(SCC(=O)N(C)CC(=O)Nc2ccc(C)cc2)n[nH]c1=O | 29.1 µM [rising, single point] |  |
| COc1ccc(CN2C(=O)CN=C2Nc2cc(C)ccc2C)cc1 | 3.66 µM [rising, single point] |  |
| CNC(=O)c1ccc(Nc2nnc(-c3ccc(O)cc3)c3ccccc23)cc1 | 20 µM [falling, single point] |  |
| COc1cccc(OC)c1C(=O)N1CCN(Cc2ccccc2C(F)(F)F)CC1 | 18.4 µM [falling, partial curve, poor fit] |  |
| CCC(=O)c1ccc(OCc2ccc(C(=O)OC)cc2)c(OC)c1 | 6.31 µM [falling, single point] |  |
| Cc1ccc(NCN2C(=O)C3CC=CCC3C2=O)cc1 (stereo unspecified) | 29.1 µM [rising, single point] |  |
| CSc1cccc(NC(=S)N(CCCN2CCCC2)Cc2cccn2Cc2ccc(Cl)cc2)c1 | 0.562 µM [falling, full curve] |  |
| O=C(COc1cccc(Br)c1)Nc1ccc(Cl)c(S(=O)(=O)N2CCOCC2)c1 | 32.6 µM [falling, single point] |  |
| CCn1nc(C)c(CNC(=O)c2cc(COc3ccc(F)cc3Cl)on2)c1C | 0.447 µM [rising, full curve, poor fit] |  |
| Cc1cccc(-n2c(=O)[nH]c3c(C(N)=O)nc(C(C)C)nc32)c1 | 8.2 µM [rising, partial curve, poor fit] |  |
| Cc1cccc(C)c1NC(=O)CSc1nc2ccccc2c(=O)[nH]1 | 0.259 µM [rising, full curve, poor fit] |  |
| CC(C)n1cnc2c(NCc3ccccc3)nc(NCc3ccccc3)nc21 | 17.8 µM [falling, single point] |  |
| COC(=O)c1cc(C)sc1NC(=O)CCCC(=O)O | 25.9 µM [rising, partial curve, poor fit] |  |
| Cc1ccc(OCc2ccc(C(=O)Nc3ccc(C(N)=O)cc3)o2)c([N+](=O)[O-])c1 | 2.82 µM [rising, partial curve, poor fit] |  |
| COCC(=O)NNC(=O)Cc1ccc(Cl)cc1 | 35.5 µM [rising, single point] |  |

| SMILES | AC50 [1] | AC50 [2] |
| --- | --- | --- |
| O=C(COC(=O)c1cc(S(=O)(=O)N2CCCCC2)ccc1N1CCOCC1)c1ccccc1 | 5.8 µM [rising, single point] |  |
| Cn1c(NNC(=O)C(c2ccccc2)c2ccccc2)cc(=O)n(C)c1=O | 10 µM [falling, partial curve, poor fit] |  |
| c1ccc(-c2cc(-c3ccccc3)n3ncnc3n2)cc1 | 10 µM [falling, partial curve, poor fit] |  |
| COC(OC)c1nc(SCC(=O)Nc2cccc(Cl)c2)ncc1C(=O)O | 35.5 µM [falling, single point] |  |
| COCC(=O)Nc1nc2n(n1)C(c1ccc(OC)cc1)CC(c1ccc(OC)cc1)N2 (stereo unspecified) | 23.1 µM [falling, single point] |  |
| CC(C)=CCC/C(C)=C/CNC(=O)C[C@H]1C[C@H](C(=O)N2CCCCC2)[C@@]2(C)c3[nH]c4ccc(Cl)cc4c3CCN2C1=O | 6.51 µM [rising, partial curve, poor fit] | 20.6 µM [falling, single point] |
| Cc1ccc(NC(=O)C2COc3ccccc3O2)nc1 (stereo unspecified) | 0.461 µM [rising, full curve] |  |
| CCOC(=O)C1CCCN(C(=O)/C=C/c2ccccc2[N+](=O)[O-])C1 (stereo unspecified) | 6.51 µM [falling, single point] |  |
| CC(=O)Nc1cccc(C(=O)/C=C/c2ccc(F)cc2)c1 | 10 µM [falling, partial curve] |  |
| O=C1c2cccc3cccc(c23)C(=O)N1c1ccccc1Cl |  | 8.91 µM [falling, partial curve, poor fit] |
| Cc1nc(N(C)Cc2ccccc2)c2c(C)c(C)sc2n1 | 20 µM [rising, partial curve, poor fit] |  |
| CNC(=S)N/N=C(\C)c1ccc2c(c1)OCO2 |  | 35.5 µM [falling, single point] |
| CCO[C@@H]1OC(C(=O)NCc2ccccc2)=C[C@H](C(C)(C)C)[C@H]1CCCO | 5.62 µM [rising, single point] |  |
| O=C1C=C(Nc2ccccc2C(=O)O)c2ccccc2C1=O | 17.8 µM [falling, single point] |  |
| O=Cc1cccc(OCc2cccc3ccccc23)c1 | 22.4 µM [rising, partial curve, poor fit] | 35.5 µM [falling, single point] |
| Cc1ccc(NC(=O)CC2SCCNC2=O)cc1Cl (stereo unspecified) | 14.6 µM [rising, partial curve, poor fit] |  |
| CCOc1ccccc1NC(=O)Nc1cccc(NC(C)=O)c1 | 3.16 µM [falling, partial curve] |  |
| O=c1c2cc([N+](=O)[O-])cc([N+](=O)[O-])c2[nH]n1-c1ccccc1 | 7.08 µM [falling, partial curve, poor fit] |  |
| COc1ccc(CNC(=O)C(=O)c2cn(CC(=O)N3CCOCC3)c3ccccc23)cc1 | 7.94 µM [falling, partial curve] |  |
| Cc1cccc(OCCCC(=O)Nc2ccc(N(C)C)cc2)c1 | 9.2 µM [rising, partial curve, poor fit] |  |
| CCN(C(=O)CN1C(=O)S/C(=C\c2cccc(Cl)c2)C1=O)C1CCS(=O)(=O)C1 (stereo unspecified) | 31.6 µM [falling, partial curve, poor fit] |  |

Shown with tabs: entries from further up
SMILES	AC50 [1]	AC50 [2]
Cc1ccc(NC(=O)CC2SCCNC2=O)cc1Cl (stereo unspecified)	14.6 µM [rising, partial curve, poor fit]	
CCOc1ccccc1NC(=O)Nc1cccc(NC(C)=O)c1	3.16 µM [falling, partial curve]	
O=c1c2cc([N+](=O)[O-])cc([N+](=O)[O-])c2[nH]n1-c1ccccc1	7.08 µM [falling, partial curve, poor fit]	

Next structures.

| SMILES | AC50 [1] | AC50 [2] |
| --- | --- | --- |
| O=C(COc1ccc2c3c(c(=O)oc2c1)CCC3)Nc1ccccn1 | 11.2 µM [rising, partial curve, poor fit] |  |
| CCc1ccc(OCC(=O)NC(NC(=S)Nc2ccc(C)cc2C)C(Cl)(Cl)Cl)cc1 (stereo unspecified) | 35.5 µM [falling, single point] |  |
| O=C1C=C(c2cc3ccccc3s2)C[C@@H](c2ccc(F)cc2)C1 | 8.2 µM [rising, partial curve] |  |
| Cc1ccc(-c2oc3ncnc(N)c3c2-c2ccc(C)cc2)cc1 | 3.26 µM [falling, partial curve, poor fit] | 6.51 µM [falling, partial curve, poor fit] |
| Nc1ccc(C(=O)Nc2nc3ccccc3s2)cc1 | 2.91 µM [falling, full curve] |  |
| Cc1ccccc1OCC(=O)N(Cc1cccc(F)c1)C1CCS(=O)(=O)C1 (stereo unspecified) | 7.94 µM [falling, partial curve, poor fit] |  |
| CNc1nc(SCc2ccccc2)nc(N2CCOCC2)n1 | 7.31 µM [falling, partial curve] |  |
| COc1cccc(-c2cc(=O)c3cc(NC(=O)c4ccc(N(C)C)cc4)ccc3[nH]2)c1 | 1.64 µM [rising, full curve] | 1.64 µM [falling, full curve] |
| S=c1[nH]nc(Cc2sc(-c3ccccc3)nc2-c2ccccc2)o1 |  | 16.4 µM [rising, partial curve, poor fit] |
| COc1ccccc1C(c1nnnn1CS(=O)(=O)c1ccc(C)cc1)N1CCSCC1 (stereo unspecified) | 22.4 µM [falling, single point] |  |
| O=C(Nc1cccnc1)Nc1ccc(F)c(Cl)c1 | 6.51 µM [rising, single point] |  |
| COc1ccc2nc(N3C(=O)CC(Cc4ccc(Cl)cc4)C3=O)sc2c1 (stereo unspecified) | 14.1 µM [falling, partial curve] |  |
| Cc1ccc([C@@H]2CC=C(C(=O)O)[C@H](c3cccc(Cl)c3)N2S(=O)(=O)c2ccccc2C)cc1 | 29.1 µM [falling, partial curve, poor fit] |  |
| CN(c1ccccc1)S(=O)(=O)c1cccc(NC(=O)CCNC(=O)c2ccc([N+](=O)[O-])cc2)c1 | 1.64 µM [rising, partial curve] |  |
| CCCCC(=O)Nc1cccc(NC(=O)C(C)C)c1 | 29.1 µM [rising, single point] |  |
| CCOc1ccc(S(=O)(=O)N(CCO)CCO)cc1-c1nc2c(C(C)(C)C)nn(C)c2c(=O)[nH]1 | 11.6 µM [rising, single point] |  |
| Cc1cc(N2CCOCC2)nc(SCc2c(Cl)cccc2Cl)n1 |  | 20.6 µM [falling, partial curve, poor fit] |
| COc1ccccc1/C=C/C1=NC(=C\N(C)C)/C(=O)O1 | 0.00461 µM [falling, full curve, poor fit] |  |
| COc1ccc([C@@H]2C[C@@H](c3ccccc3)Oc3cc(OC)cc(OC)c32)cc1 | 1 µM [rising, full curve] |  |
| O=C1C(C=Nc2ccccc2)=C(O)c2ccccc21 | 1.64 µM [falling, full curve] |  |
